Source: article PMC5770965, “pKID Binds to KIX via an Unstructured Transition State with Nonnative Interactions” (Biophysical Journal, 2017)
These are yes or no findings as the source states them, for the method shown. Some binding calls cover weakened binding; strength is not graded here. Non-standard residues stand in square brackets, D forms with d. No end group written: not given here. *: point of attachment. FITC = O=C1OC2(c3ccc(O)cc3Oc3cc(O)ccc32)c2ccc(NC(=S)*)cc21; pS = N[C@@H](COP(=O)(O)O)C(=O)O

Amino acid sequences for entries named in this document (tags omitted). Residues count along the entry.
UniProt P45481, residues 586-666: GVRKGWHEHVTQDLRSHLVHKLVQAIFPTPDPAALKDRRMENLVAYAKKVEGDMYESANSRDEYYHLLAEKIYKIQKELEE

How the values were obtained:
[1] = biological target: KIX domain of CBP (UniProt P45481); experiment: fluorescence polarisation; equilibrium fluorescence anisotropy of N-terminally FITC-labelled pKID peptides with KIX; buffer and conditions as in the accompanying article (ref. 42); both purified
[2] = biological target: KIX domain of CBP (UniProt P45481); experiment: stopped-flow fluorescence kinetics; association under pseudo-first-order conditions at different KIX concentrations (fast and slow phase); dissociation of FITC-pKID from KIX at different concentrations of unlabeled competitor; conditions as in the accompanying article (ref. 42); both …
[3] = biological target: KIX domain of CBP (UniProt P45481); experiment: fluorescence polarisation; equilibrium fluorescence anisotropy of N-terminally FITC-labelled pKID peptides with KIX; buffer and conditions as in the accompanying article (ref. 42); both purified; remark: listed apart in the source

| Molecule | binding [1] | binding [2] | binding [3] |
| --- | --- | --- | --- |
| FITC-pKID wild-type peptide (CREB residues 116-146, phosphorylated) (from UniProt P15337-1 116-146) | binds | binds |  |
| DSVTDSQKRREILSRRPSYRKILNALSSDAP (peptide, UniProt P15337-1 116-146, FITC on the N-terminus; phosphoserine at 133) [FITC-pKID D140A] |  | binds | binds |
| {FITC}-DSVTDAQKRREILSRRP[pS]YRKILNDLSSDAP (peptide, UniProt P15337-1 116-146, looked up, source: synthetic peptide, bought: Biomatik) [FITC-pKID S121A] | binds | binds |  |
| {FITC}-DSVTDSQKRREILSRRP[pS]YRKILNDLASDAP (peptide, UniProt P15337-1 116-146, looked up, source: synthetic peptide, bought: Biomatik) [FITC-pKID S142A] | binds | binds |  |
| {FITC}-DSVADSQKRREILSRRP[pS]YRKILNDLSSDAP (peptide, UniProt P15337-1 116-146, looked up, source: synthetic peptide, bought: Biomatik) [FITC-pKID T119A] |  | binds |  |
| {FITC}-DSVGDSQKRREILSRRP[pS]YRKILNDLSSDAP (peptide, UniProt P15337-1 116-146, looked up, the peptide has Gly in place of the natural Thr119; also called A119G; source: synthetic peptide, bought: Biomatik) [FITC-pKID T119G] |  | binds |  |
| DSVTDSQKRRAILSRRPSYRKILNDLSSDAP (peptide, UniProt P15337-1 116-146, FITC on the N-terminus; phosphoserine at 133) [FITC-pKID E126A] |  | binds | binds |
| DSVTDSQKRREILSRRASYRKILNDLSSDAP (peptide, UniProt P15337-1 116-146, FITC on the N-terminus; phosphoserine at 133) [FITC-pKID P132A (Ala mutant at 132)] |  |  | binds |
| DSVTDSQKRREILSRRPSYAKILNDLSSDAP (peptide, UniProt P15337-1 116-146, FITC on the N-terminus; phosphoserine at 133) [FITC-pKID R135A (Ala mutant at 135)] |  |  | binds |
| DSVTDSQKRREILSRRPSYRAILNDLSSDAP (peptide, UniProt P15337-1 116-146, FITC on the N-terminus; phosphoserine at 133) [FITC-pKID K136A (Ala mutant at 136)] |  |  | binds |
| DSVTDSQKRREILSRRGSYRKILNDLSSDAP (peptide, UniProt P15337-1 116-146, FITC on the N-terminus; phosphoserine at 133) [FITC-pKID P132G (Gly mutant at 132)] |  |  | binds |
| DSVTDSQKRREILSRRPSYGKILNDLSSDAP (peptide, UniProt P15337-1 116-146, FITC on the N-terminus; phosphoserine at 133) [FITC-pKID R135G (Gly mutant at 135)] |  |  | binds |
| DSVTDSQKRREILSRRPSYRGILNDLSSDAP (peptide, UniProt P15337-1 116-146, FITC on the N-terminus; phosphoserine at 133) [FITC-pKID K136G (Gly mutant at 136)] |  |  | binds |
| DSVTDSQKRAEILSRRPSYRKILNDLSSDAP (peptide, UniProt P15337-1 116-146, FITC on the N-terminus; phosphoserine at 133) [FITC-pKID R125A] |  | binds | binds |
| DSVTDSQKRREILSRAPSYRKILNDLSSDAP (peptide, UniProt P15337-1 116-146, FITC on the N-terminus; phosphoserine at 133) [FITC-pKID R131A] |  | binds | binds |
| DSVTDSQKRREILSRRPSYRKALNDLSSDAP (peptide, UniProt P15337-1 116-146, FITC on the N-terminus; phosphoserine at 133) [FITC-pKID I137A] |  | binds |  |
| DSVTDSQKAREILSRRPSYRKILNDLSSDAP (peptide, UniProt P15337-1 116-146, FITC on the N-terminus; phosphoserine at 133) [FITC-pKID R124A] |  | binds | binds |
| DSVTDSQKRREIASRRPSYRKILNDLSSDAP (peptide, UniProt P15337-1 116-146, FITC on the N-terminus; phosphoserine at 133) [FITC-pKID L128A] |  | binds |  |
| DSVTDSQKRREILSRRPSYRKIANDLSSDAP (peptide, UniProt P15337-1 116-146, FITC on the N-terminus; phosphoserine at 133) [FITC-pKID L138A] |  | binds |  |
